Reference: the supplement of paper PMC10849652
The other results are listed elsewhere or left out. Residues, ends and D or L forms follow the SMILES beside them. *: point of attachment. Cbz = O=C(OCc1ccccc1)*

The chains behind the UniProt entries cited, without tags or fusion partners. Where a name states a change or a piece, a line headed by the entry shows the natural chain unless it says otherwise.
UniProt Q9P2R7: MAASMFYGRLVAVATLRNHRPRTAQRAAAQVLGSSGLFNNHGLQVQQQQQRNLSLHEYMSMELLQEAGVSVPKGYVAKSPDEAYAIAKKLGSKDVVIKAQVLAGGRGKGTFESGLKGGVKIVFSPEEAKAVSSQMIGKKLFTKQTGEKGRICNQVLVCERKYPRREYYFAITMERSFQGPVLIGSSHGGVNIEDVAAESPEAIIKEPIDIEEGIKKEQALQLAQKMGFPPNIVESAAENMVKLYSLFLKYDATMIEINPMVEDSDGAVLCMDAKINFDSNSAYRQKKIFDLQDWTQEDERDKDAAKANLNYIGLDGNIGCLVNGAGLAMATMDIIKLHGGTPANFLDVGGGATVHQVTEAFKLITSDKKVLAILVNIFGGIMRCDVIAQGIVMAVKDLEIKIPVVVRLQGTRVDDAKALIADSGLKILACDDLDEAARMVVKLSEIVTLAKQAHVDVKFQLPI
UniProt O95926: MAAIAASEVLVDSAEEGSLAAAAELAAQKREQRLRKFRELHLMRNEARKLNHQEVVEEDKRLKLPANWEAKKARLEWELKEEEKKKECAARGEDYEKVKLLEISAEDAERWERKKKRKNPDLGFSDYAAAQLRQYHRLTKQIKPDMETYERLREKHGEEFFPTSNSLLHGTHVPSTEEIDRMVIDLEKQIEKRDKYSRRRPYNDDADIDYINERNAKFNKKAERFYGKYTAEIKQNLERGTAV
UniProt Q13043: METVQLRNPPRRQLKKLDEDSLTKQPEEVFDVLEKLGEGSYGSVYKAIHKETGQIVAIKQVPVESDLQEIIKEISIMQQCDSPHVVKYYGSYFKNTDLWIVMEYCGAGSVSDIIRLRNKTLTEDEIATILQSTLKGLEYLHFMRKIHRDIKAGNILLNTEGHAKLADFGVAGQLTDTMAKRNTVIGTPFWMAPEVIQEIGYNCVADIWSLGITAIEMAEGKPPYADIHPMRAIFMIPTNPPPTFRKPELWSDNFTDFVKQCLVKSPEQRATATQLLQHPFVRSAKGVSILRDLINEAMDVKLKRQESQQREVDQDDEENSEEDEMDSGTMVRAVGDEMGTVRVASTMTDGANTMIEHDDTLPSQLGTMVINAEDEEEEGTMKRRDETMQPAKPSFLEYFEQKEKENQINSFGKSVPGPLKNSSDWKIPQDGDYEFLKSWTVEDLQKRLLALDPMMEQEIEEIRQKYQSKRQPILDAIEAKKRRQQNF
UniProt Q9UH99: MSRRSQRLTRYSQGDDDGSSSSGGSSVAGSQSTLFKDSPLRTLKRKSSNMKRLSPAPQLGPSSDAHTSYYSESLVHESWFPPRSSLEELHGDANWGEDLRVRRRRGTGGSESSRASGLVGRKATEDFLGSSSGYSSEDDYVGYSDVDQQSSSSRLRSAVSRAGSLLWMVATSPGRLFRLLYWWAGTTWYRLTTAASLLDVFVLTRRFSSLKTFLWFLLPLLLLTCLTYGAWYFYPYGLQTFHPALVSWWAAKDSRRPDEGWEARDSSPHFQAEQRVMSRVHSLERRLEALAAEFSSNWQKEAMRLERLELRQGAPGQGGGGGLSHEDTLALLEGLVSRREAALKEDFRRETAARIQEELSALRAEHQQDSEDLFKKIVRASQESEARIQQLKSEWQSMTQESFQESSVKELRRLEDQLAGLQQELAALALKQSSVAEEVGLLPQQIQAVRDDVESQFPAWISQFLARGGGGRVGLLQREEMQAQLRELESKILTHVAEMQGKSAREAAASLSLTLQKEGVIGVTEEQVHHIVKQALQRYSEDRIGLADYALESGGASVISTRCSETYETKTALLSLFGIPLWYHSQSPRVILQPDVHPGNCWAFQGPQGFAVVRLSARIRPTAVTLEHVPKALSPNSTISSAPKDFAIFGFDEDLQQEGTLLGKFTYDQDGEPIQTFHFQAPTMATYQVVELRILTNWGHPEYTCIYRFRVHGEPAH
UniProt Q9UI15: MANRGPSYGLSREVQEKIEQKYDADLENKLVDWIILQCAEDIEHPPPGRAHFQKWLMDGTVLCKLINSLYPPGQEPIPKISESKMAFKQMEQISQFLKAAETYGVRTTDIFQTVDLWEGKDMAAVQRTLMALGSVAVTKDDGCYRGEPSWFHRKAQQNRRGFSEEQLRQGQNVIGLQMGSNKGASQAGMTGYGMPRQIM
UniProt Q6P1X5, whole entry, looked up: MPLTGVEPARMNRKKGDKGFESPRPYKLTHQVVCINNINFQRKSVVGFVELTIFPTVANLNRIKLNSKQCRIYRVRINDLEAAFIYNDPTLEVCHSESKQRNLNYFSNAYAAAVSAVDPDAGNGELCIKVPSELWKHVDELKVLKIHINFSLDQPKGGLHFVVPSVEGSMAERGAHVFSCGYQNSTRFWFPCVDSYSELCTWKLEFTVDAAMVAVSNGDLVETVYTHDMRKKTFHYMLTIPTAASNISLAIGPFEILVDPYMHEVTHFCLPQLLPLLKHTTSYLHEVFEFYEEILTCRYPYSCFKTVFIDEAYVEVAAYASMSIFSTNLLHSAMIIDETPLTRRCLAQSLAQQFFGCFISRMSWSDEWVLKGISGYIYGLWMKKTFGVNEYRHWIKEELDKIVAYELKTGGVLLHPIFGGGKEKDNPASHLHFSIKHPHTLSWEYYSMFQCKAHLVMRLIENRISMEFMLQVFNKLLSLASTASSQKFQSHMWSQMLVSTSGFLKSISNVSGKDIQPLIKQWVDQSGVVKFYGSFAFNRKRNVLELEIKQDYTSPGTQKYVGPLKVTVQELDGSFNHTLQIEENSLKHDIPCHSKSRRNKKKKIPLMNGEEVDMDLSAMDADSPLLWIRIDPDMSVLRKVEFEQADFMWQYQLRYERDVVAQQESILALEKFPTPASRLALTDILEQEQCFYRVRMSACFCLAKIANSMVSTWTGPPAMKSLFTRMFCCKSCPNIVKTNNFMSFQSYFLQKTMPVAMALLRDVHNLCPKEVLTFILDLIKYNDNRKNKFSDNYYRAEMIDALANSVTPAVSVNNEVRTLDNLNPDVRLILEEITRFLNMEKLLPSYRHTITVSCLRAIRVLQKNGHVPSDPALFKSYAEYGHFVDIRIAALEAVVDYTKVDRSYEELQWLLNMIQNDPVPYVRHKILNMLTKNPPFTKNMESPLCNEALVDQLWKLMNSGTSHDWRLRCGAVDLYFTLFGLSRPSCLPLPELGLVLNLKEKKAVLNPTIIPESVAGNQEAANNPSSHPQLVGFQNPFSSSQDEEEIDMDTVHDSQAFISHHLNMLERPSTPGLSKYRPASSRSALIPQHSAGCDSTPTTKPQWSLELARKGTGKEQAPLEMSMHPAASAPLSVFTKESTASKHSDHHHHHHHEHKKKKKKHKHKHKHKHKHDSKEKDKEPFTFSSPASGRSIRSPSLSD
UniProt Q5T5C0: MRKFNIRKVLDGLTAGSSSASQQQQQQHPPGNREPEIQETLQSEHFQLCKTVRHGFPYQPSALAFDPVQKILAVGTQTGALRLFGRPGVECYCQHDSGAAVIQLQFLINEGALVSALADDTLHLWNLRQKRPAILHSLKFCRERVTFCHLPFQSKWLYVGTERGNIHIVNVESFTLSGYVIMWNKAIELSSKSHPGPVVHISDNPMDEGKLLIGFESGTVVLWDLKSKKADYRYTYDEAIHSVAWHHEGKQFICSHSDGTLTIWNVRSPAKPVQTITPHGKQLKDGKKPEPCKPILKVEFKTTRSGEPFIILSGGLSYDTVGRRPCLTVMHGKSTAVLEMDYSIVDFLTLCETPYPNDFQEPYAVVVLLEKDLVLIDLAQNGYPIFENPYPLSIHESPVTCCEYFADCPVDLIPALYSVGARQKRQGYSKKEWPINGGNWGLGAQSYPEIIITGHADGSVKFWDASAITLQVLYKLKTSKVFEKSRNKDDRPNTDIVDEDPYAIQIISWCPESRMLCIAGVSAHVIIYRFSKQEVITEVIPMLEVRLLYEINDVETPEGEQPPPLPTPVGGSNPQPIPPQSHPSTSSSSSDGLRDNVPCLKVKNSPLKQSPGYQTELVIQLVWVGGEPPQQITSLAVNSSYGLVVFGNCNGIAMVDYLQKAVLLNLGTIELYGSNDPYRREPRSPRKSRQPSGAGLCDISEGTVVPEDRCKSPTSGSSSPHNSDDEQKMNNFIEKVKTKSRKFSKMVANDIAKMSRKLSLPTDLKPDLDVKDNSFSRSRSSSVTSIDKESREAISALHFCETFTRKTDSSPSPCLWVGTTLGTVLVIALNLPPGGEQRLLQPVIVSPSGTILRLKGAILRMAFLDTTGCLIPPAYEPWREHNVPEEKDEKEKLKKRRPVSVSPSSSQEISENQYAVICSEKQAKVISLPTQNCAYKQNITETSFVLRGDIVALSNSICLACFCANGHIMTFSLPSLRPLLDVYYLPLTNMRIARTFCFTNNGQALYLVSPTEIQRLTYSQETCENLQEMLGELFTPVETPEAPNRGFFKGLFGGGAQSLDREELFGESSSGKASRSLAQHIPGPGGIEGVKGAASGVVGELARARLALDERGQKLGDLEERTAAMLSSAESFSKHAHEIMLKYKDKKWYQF
UniProt Q9Y5B9, whole entry, looked up: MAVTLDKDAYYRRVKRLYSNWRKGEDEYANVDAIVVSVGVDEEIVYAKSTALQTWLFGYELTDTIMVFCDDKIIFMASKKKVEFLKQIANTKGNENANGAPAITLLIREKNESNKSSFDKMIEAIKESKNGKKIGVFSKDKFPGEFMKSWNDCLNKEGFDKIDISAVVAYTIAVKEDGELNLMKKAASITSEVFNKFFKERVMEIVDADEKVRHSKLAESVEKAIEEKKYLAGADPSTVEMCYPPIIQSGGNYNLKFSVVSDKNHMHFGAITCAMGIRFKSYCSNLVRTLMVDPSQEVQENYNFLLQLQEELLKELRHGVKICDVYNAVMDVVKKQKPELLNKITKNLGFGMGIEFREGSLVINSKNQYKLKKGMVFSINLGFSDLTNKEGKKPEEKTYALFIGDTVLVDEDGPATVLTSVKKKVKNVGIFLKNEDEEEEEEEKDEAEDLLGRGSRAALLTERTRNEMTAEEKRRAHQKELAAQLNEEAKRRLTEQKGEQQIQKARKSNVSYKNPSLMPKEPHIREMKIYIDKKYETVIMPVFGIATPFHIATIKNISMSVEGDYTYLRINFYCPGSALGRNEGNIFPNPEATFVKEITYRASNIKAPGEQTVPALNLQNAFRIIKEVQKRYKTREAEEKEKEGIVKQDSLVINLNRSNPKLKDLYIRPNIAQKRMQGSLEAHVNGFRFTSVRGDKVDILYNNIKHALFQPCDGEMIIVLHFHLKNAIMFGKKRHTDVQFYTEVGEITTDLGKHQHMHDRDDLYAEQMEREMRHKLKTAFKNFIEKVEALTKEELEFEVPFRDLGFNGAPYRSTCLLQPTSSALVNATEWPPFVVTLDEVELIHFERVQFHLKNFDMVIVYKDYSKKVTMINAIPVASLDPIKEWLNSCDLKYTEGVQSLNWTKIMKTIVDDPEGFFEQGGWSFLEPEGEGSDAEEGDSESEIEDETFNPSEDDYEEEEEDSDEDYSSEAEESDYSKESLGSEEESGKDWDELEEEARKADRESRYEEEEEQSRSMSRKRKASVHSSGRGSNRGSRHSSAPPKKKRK
UniProt Q9C0B7: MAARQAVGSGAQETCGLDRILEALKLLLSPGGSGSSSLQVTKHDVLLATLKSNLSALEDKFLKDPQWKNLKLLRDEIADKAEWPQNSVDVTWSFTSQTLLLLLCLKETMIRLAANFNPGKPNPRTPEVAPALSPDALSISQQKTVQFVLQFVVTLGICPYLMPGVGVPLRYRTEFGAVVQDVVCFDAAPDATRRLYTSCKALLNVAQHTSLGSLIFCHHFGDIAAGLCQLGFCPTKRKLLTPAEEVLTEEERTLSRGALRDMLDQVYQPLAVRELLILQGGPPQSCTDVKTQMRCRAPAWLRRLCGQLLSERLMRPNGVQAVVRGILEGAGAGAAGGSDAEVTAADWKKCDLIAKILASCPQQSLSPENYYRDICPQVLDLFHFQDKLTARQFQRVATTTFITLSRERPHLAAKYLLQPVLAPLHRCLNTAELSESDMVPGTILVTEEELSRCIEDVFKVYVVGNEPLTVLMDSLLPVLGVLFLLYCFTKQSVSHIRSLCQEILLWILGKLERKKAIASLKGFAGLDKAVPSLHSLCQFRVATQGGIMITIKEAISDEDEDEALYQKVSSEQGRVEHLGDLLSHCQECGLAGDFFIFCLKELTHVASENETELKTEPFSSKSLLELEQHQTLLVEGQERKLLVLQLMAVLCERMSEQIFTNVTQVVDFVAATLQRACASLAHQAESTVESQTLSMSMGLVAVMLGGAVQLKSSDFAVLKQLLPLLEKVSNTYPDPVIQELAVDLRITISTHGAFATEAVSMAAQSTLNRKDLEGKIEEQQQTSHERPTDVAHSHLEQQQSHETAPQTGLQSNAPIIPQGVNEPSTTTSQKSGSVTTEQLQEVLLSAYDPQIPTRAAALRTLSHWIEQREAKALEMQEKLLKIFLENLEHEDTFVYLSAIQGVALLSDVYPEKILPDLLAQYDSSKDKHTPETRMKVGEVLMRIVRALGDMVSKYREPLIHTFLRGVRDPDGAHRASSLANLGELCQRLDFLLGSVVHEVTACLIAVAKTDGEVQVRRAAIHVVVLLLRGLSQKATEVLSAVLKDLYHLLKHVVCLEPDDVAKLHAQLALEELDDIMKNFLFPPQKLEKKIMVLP

What was measured:
Assay in all cases: log2 fold change, soluble protein after heating vs DMSO (PISA); higher = thermal stabilisation; K562 cells, 10 uM, 30 min; active = over 0.2 and 3.5 SD of the protein, either way, in both replicates (recomputed)
IRAK-1-4 Inhibitor I = compound: C1COCCN1CCN2C3=CC=CC=C3N=C2NC(=O)C4=CC(=CC=C4)[N+](=O)[O-] [IRAK-1-4 Inhibitor I]
Summary of the method: (§1)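 For each measurement, 10 μM compound was applied for 30 min to K562 cells at 2×10^6 cells/mL. Aliquots were heated for 3 min across 48°C-58°C, pooled, and extracted in PBS with 0.5% NP-40 at 4°C; the supernatant after 21,000xg for 90 min was soluble protein. This was quantified by TMTpro 16plex LC-MS/MS with channel sums equalised, and thermal stability was reported relative to control samples from duplicates, on a log2 fold-change scale.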

ibrutinib = compound: C=CC(=O)N1CCC[C@@H](n2nc(-c3ccc(Oc4ccccc4)cc3)c3c(N)ncnc32)C1 [ibrutinib]
Summary of the method: as §1

[1] = compound: CC(=O)c1cnc2ccc(-c3cc(Cl)c(O)c(Cl)c3)nc2c1N[C@H]1CC[C@H](CN(C)C)CC1
Summary of the method: as §1

ralimetinib = compound: CC(C)(C)Cn1c(N)nc2ccc(-c3[nH]c(C(C)(C)C)nc3-c3ccc(F)cc3)nc21 [ralimetinib]
Summary of the method: as §1

[2] = compound: CC(C)(O)CC(=O)NCCn1ccc2ncnc(Nc3ccc(Oc4cccc(C(F)(F)F)c4)c(Cl)c3)c21
Summary of the method: as §1

[3] = compound: CC(C)C1=C2N=C(C=C(N2N=C1)NCC3=CC=CC=C3)NCCCCCCN
Summary of the method: as §1

[4] = compound: CC(C)C[C@@H](C=O)NC(=O)[C@H](CC(C)C)NC(=O)[C@H](CC(C)C)NC(=O)OCc1ccccc1
Summary of the method: as §1

pinometostat = compound: CC(C)N(C[C@H]1O[C@@H](n2cnc3c(N)ncnc32)[C@H](O)[C@@H]1O)[C@H]1C[C@@H](CCc2nc3cc(C(C)(C)C)ccc3[nH]2)C1 [pinometostat]
Summary of the method: as §1

[5] = compound: CC1=C(C2=C(C=C1)C(=O)C3=CC=CC=C3N2CCCN)C
Summary of the method: as §1

[6] = compound: CC1=C(C=C(C=C1)NC(=O)C2=CC(=CC=C2)C(C)(C)C#N)NC3=CC4=C(C=C3)N=CN(C4=O)C
Summary of the method: as §1

[7] = compound: CC1=C(C=C(C=C1)NC(=O)C2=CC(=CC=C2)N(C)C)NC(=O)C3=CC=C(C=C3)O
Summary of the method: as §1

[8] = compound: CC1=CC=C(C=C1)SC2=C3C=C(SC3=CN=C2)C(=O)N
Summary of the method: as §1

[9] = compound: CC1=NC(=CC=C1)C2=C(N=C(N2)C(C)(C)C)C3=CC4=NC=CN=C4C=C3
Summary of the method: as §1

Nexturastat A = compound: CCCCN(Cc1ccc(C(=O)NO)cc1)C(=O)Nc1ccccc1 [Nexturastat A]
Summary of the method: as §1

vemurafenib = compound: CCCS(=O)(=O)Nc1ccc(F)c(C(=O)c2c[nH]c3ncc(-c4ccc(Cl)cc4)cc23)c1F [vemurafenib]
Summary of the method: as §1

[10] = compound: CCCS(=O)(=O)Nc1ccc(F)c(C(=O)c2c[nH]c3ncc(Cl)cc23)c1F
Summary of the method: as §1

[11] = compound: CCCc1cc(C)[nH]c(=O)c1CNC(=O)c1cc(-c2ccnc(N3CCN(C)CC3)c2)cc2c1cnn2C(C)C
Summary of the method: as §1

givinostat = compound: CCN(CC)Cc1ccc2cc(COC(=O)Nc3ccc(C(=O)NO)cc3)ccc2c1 [givinostat]
Summary of the method: as §1

barasertib = compound: CCN(CCCOc1ccc2c(Nc3cc(CC(=O)Nc4cccc(F)c4)[nH]n3)ncnc2c1)CCOP(=O)(O)O [barasertib]
Summary of the method: as §1

[12] = compound: CC1=C(C(CC(=O)N1)C2=CC=C(C=C2)C(F)(F)F)C(=O)NC3=C(C=C4C(=C3)C=NN4)F
Summary of the method: as §1

Target | log2 fold change (IRAK-1-4 Inhibitor I) | log2 fold change (ibrutinib) | log2 fold change [1] | log2 fold change (ralimetinib) | log2 fold change [2] | log2 fold change [3] | log2 fold change [4] | log2 fold change (pinometostat) | log2 fold change [5] | log2 fold change [6] | log2 fold change [7] | log2 fold change [8] | log2 fold change [9] | log2 fold change (Nexturastat A) | log2 fold change (vemurafenib) | log2 fold change [10] | log2 fold change [11] | log2 fold change (givinostat) | log2 fold change (barasertib) | log2 fold change [12]
TAX1BP1 (UniProt Q86VP1) | inactive: -0.015 | inactive: -0.007 | inactive: -0.195 | inactive: 0.066 | inactive: -0.008 | inactive: -0.124 | inactive: 0.076 | inactive: 0.088 | inactive: -0.006 | inactive: 0.031 | inactive: -0.005 | inactive: -0.014 | inactive: -0.026 | inactive: -0.014 | inactive: -0.003 | inactive: 0.011 | inactive: -0.055 | inactive: -0.033 | inactive: -0.061 | 
TARS2 (UniProt Q9BW92) | inactive: -0.076 | inactive: -0.043 | inactive: 0.009 | inactive: -0.029 | inactive: -0.078 | active: -0.219 | inactive: 0.069 | inactive: -0.022 | inactive: 0.054 | inactive: -0.027 | inactive: 0.022 | inactive: 0.021 | inactive: 0.078 | inactive: -0.201 | inactive: 0.008 | inactive: 0.027 | inactive: -0.013 | active: -0.245 | inactive: 0.028 | 
SUCLA2 (UniProt Q9P2R7) | inactive: 0.02 | inactive: -0.045 | inactive: 0.014 | inactive: -0.021 | inactive: -0.151 | inactive: -0.107 | inactive: -0.033 | inactive: -0.034 | inactive: 0.022 | inactive: -0.038 | inactive: -0.018 | inactive: 0.003 | inactive: 0.06 | inactive: -0.083 | inactive: 0.047 | inactive: 0.008 | inactive: -0.02 | inactive: -0.003 | inactive: 0.064 | 
SYNE1 (UniProt Q8NF91) | inactive: 0.062 | inactive: -0.015 | inactive: -0.398 | inactive: 0.127 | inactive: -0.212 | inactive: 0.097 | inactive: 0.064 | inactive: 0.002 | inactive: 0.075 | inactive: -0.126 | inactive: -0.051 |  | inactive: -0.17 | active: 0.612 | inactive: -0.045 |  | inactive: -0.044 | inactive: 0.199 | inactive: 0.047 | 
SUPT5H (UniProt O00267) | inactive: -0.009 | inactive: -0.068 | inactive: 0.066 | inactive: -0.009 | inactive: -0.065 | inactive: -0.046 | inactive: 0.013 | inactive: -0.017 | inactive: -0.08 | inactive: 0.004 | inactive: -0.054 | inactive: 0.006 | inactive: 0.013 | inactive: -0.067 | inactive: 0.008 | inactive: 0.068 | inactive: -0.028 | inactive: 0.035 | inactive: 0.04 | 
SYF2 (UniProt O95926) | inactive: -0.063 | inactive: 0.056 | active: 0.411 | inactive: -0.019 | inactive: 0.049 | inactive: 0.327 | inactive: 0.199 | inactive: 0.072 | active: 0.382 | inactive: 0.03 | inactive: 0.049 | inactive: -0.063 | inactive: -0.133 | inactive: -0.015 | inactive: -0.071 | inactive: -0.134 | inactive: -0.008 | inactive: 0.031 | inactive: -0.083 | 
STX17 (UniProt P56962) | inactive: -0.062 | inactive: 0.002 | inactive: 0.031 | inactive: 0.037 | inactive: -0.063 | inactive: -0.235 | inactive: 0.028 | inactive: 0.006 | inactive: 0.138 | inactive: -0.036 | inactive: -0.064 | inactive: -0.023 | inactive: 0.039 | inactive: 0.126 | inactive: 0.12 | inactive: 0.12 | inactive: -0.07 | inactive: 0.152 | inactive: 0.011 | 
STK4 (UniProt Q13043) | inactive: -0.012 | inactive: -0.078 | active: -0.233 | inactive: 0.002 | inactive: -0.018 | inactive: -0.019 | inactive: 0.015 | inactive: 0.008 | inactive: 0.019 | inactive: -0.065 | inactive: 0.018 | inactive: -0.022 | inactive: 0.007 | inactive: 0.004 | inactive: -0.024 | inactive: -0.014 | inactive: 0.005 | inactive: -0.006 | inactive: 0.032 | 
SUN2 (UniProt Q9UH99) | inactive: -0.04 | inactive: 0.056 | inactive: -0.044 | inactive: 0.072 | inactive: -0.119 | active: -0.211 | inactive: 0.041 | inactive: 0.027 | inactive: -0.117 | inactive: 0.023 | inactive: 0.001 | inactive: -0.017 | inactive: -0.025 | inactive: 0.005 | inactive: -0.026 | inactive: 0.015 | inactive: 0.013 | inactive: 0.005 | inactive: -0.012 | 
TAGLN3 (UniProt Q9UI15) | inactive: -0.006 | inactive: -0.126 | inactive: -0.055 |  | inactive: -0.02 |  |  | inactive: -0.082 | inactive: -0.07 | inactive: -0.02 |  |  | inactive: -0.036 | inactive: -0.036 | inactive: -0.117 |  | inactive: 0.038 |  | inactive: 0.014 | 
TAF2 (UniProt Q6P1X5) | inactive: 0.026 | inactive: -0.01 | inactive: -0.204 | inactive: 0.027 | inactive: 0.029 |  | inactive: 0.061 | inactive: 0.209 | inactive: -0.055 | inactive: 0.006 | inactive: 0.028 | inactive: 0.042 | inactive: -0.199 | inactive: -0.024 | inactive: -0.078 | inactive: -0.024 | inactive: 0.097 |  | inactive: -0.074 | inactive: 0.058
STXBP5 (UniProt Q5T5C0) | inactive: -0.025 | inactive: -0.037 | inactive: -0.073 | inactive: 0.029 | inactive: -0.038 | inactive: -0.107 | inactive: -0.049 | inactive: 0.025 | inactive: 0.048 | inactive: -0.021 | inactive: -0.041 | inactive: -0.007 | inactive: -0.006 | inactive: -0.002 | inactive: -0.038 | inactive: 0.013 | inactive: -0.006 | inactive: 0.022 | inactive: -0.004 | 
SUMO2 (UniProt P61956) | inactive: 0.132 | inactive: 0.082 | inactive: 0.095 | inactive: 0.005 |  | inactive: 0.165 | inactive: 0.184 | inactive: -0.016 | inactive: -0.218 | inactive: -0.133 | inactive: 0.1 | inactive: -0.135 | inactive: -0.081 |  | inactive: -0.084 | inactive: -0.229 | inactive: -0.019 | inactive: -0.019 | inactive: -0.045 | inactive: 0.158
SUPT16H (UniProt Q9Y5B9) | inactive: -0.155 | inactive: -0.139 | inactive: -0.259 | inactive: -0.059 | inactive: -0.174 | inactive: -0.26 | inactive: 0.083 | inactive: 0.044 | active: -1.34 | inactive: 0.082 | inactive: -0.081 | inactive: 0.01 | inactive: 0.102 | inactive: -0.019 | inactive: 0.186 | inactive: 0.093 | inactive: 0.061 | inactive: 0.223 | inactive: 0.187 | 
SUMO1 (UniProt P63165) | inactive: -0.079 | inactive: -0.007 | inactive: -0.077 | inactive: 0.053 | inactive: 0.139 | inactive: -0.065 | inactive: 0.01 | inactive: 0.022 | inactive: -0.125 | inactive: -0.064 | inactive: -0.045 | inactive: 0.4 | inactive: 0.024 | inactive: -0.142 | inactive: -0.051 | active: 0.657 | inactive: -0.071 | inactive: -0.172 | inactive: -0.055 | 
TANGO6 (UniProt Q9C0B7) | inactive: -0.117 | inactive: -0.077 | inactive: 0.052 | inactive: 0.197 | inactive: -0.153 | inactive: -0.098 | inactive: -0.068 | inactive: 0 | inactive: 0.006 | inactive: 0.069 | inactive: -0.006 | inactive: 0.039 | inactive: 0.031 | inactive: -0.051 |  | inactive: 0.068 | inactive: -0.052 | inactive: 0.131 | inactive: 0.048 | 
SUGP1 (UniProt Q8IWZ8) | inactive: 0.008 | inactive: -0.024 | inactive: -0.08 | inactive: -0.023 | inactive: -0.003 | inactive: -0.127 | inactive: 0.061 | inactive: -0.017 | inactive: -0.003 | inactive: -0.006 | inactive: -0.021 | inactive: 0.033 | inactive: 0.065 | inactive: 0.056 | inactive: 0.121 | inactive: 0.096 | inactive: -0.001 | inactive: 0.095 | inactive: 0.068 | 
TBC1D10B (UniProt Q4KMP7) | inactive: -0.001 | inactive: 0.025 | active: -0.342 | inactive: 0.009 | inactive: -0.006 | inactive: -0.027 | inactive: 0.021 | inactive: 0.063 | inactive: 0.057 | inactive: -0.019 | inactive: 0.015 | inactive: 0.025 | inactive: 0 | inactive: -0.051 | inactive: 0.004 | inactive: 0.048 | inactive: 0.014 | inactive: 0.018 | inactive: 0.01 | 

An excerpt from above, showing only log2 fold change (ibrutinib):
Target	log2 fold change (ibrutinib)
STXBP5 (UniProt Q5T5C0)	inactive: -0.037
SUPT16H (UniProt Q9Y5B9)	inactive: -0.139
